Source: US20240392002A1
Positions count from the first letter of the chain named. In names and notes the source's numbering stands. No constants are given. Whether binding was seen depends on the method and setting. Some results given as binding are weak or reduced against the parent protein; the word gives no strength.

Amino acid sequences for entries named in this document (tags omitted). A change or cut given only in a name is not applied to a line headed by its entry.
UniProt Q01973: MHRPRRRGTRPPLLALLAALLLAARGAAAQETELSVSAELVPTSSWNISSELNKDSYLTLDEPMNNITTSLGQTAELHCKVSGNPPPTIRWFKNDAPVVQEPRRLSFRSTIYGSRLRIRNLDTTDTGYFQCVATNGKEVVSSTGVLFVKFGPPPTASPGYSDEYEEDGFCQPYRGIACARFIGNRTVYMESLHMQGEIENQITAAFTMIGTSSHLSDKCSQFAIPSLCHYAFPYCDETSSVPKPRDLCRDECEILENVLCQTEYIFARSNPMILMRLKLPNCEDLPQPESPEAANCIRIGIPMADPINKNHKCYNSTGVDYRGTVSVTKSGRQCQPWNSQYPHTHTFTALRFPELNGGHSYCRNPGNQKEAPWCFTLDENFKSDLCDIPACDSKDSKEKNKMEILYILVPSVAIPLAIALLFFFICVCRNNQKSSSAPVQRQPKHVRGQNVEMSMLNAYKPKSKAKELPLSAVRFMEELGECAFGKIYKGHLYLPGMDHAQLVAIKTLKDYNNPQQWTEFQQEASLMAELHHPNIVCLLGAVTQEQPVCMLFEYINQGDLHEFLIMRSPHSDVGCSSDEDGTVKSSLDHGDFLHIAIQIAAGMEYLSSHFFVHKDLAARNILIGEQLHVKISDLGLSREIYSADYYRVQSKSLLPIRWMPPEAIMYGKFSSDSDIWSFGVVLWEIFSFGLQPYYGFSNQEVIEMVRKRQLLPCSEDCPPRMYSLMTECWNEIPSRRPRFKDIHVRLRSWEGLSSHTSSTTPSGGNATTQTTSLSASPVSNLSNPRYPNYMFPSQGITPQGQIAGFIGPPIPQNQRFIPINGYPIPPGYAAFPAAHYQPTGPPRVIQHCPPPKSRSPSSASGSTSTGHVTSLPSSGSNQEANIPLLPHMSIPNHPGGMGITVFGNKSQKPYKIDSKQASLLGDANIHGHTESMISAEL
UniProt Q01974: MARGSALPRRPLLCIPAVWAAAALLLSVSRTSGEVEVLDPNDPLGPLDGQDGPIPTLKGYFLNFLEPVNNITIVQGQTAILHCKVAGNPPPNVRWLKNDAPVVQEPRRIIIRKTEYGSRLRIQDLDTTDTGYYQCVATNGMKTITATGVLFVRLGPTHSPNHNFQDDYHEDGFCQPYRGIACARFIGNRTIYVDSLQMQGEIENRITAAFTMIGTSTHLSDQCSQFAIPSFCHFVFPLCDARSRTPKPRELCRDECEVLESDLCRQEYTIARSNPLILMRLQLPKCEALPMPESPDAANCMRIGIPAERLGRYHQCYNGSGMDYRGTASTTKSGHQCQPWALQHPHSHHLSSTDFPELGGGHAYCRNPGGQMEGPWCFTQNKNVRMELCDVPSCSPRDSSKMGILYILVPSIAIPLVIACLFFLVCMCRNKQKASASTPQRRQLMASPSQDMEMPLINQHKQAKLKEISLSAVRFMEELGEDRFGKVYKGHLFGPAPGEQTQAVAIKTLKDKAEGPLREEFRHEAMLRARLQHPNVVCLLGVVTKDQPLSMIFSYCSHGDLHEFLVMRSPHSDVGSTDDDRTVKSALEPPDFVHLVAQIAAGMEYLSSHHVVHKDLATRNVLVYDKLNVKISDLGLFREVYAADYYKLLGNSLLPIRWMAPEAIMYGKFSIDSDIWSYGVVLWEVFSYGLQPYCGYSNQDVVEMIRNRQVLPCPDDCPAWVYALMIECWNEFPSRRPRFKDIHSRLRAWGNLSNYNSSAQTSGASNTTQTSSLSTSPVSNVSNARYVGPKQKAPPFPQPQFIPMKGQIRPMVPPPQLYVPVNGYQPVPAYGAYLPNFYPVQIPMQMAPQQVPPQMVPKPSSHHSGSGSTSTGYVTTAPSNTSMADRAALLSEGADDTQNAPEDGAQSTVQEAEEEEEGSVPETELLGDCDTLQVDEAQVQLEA

B1: I2A-10 D54E Y55Q IgG (antibody, V domains shown)
VH: EVQLVESGGGLVQPGGSLRLSCAASGFTFSSYFIHWVRQAPGKGLEWVAGIYPSEGYTSYADSVKGRFTISADTSKNTAYLQMNSLRAEDTAVYYCARYYVSGMDYWGQGTLVTVSS
VL: DIQMTQSPSSLSASVGDRVTITCRASQSVSSAVAWYQQKPGKAPKLLIYSASSLQSGVPSRFSGSRSGTDFTLTISSLQPEDFATYYCQQYYYYPGTFGQGTKVEIKR
B2: I2A-26 IgG1 (antibody, V domains shown)
VH: EVQLVESGGGLVQPGGSLRLSCAASGFTFQSYDIHWVRQAPGKGLEWVAAIDPTGRSTAYADSVKGRFTISADTSKNTAYLQMNSLRAEDTAVYYCARDYGVFDYWGQGTLVTVSS
VL: DIQMTQSPSSLSASVGDRVTITCRASQSVSSAVAWYQQKPGKAPKLLIYSASSLYSGVPSRFSGSRSGTDFTLTISSLQPEDFATYYCQQFYRSPATFGQGTKVEIK
B3: I2A-12 IgG1 (antibody, V domains shown)
VH: EVQLVESGGGLVQPGGSLRLSCAASGFTFTTYYIHWVRQAPGKGLEWVAYISPEDGYTSYADSVKGRFTISADTSKNTAYLQMNSLRAEDTAVYYCARAYYSAVMDYWGQGTLVTVSS
VL: B2 VL with F91S, Y92W, R93S, S94P, P95A, A96T
B4: I2A-13 IgG1 (antibody, V domains shown)
VH: EVQLVESGGGLVQPGGSLRLSCAASGFTFSYYFIHWVRQAPGKGLEWVAVIYPDGGYTLYADSVKGRFTISADTSKNTAYLQMNSLRAEDTAVYYCARIYYPSGAMDYWGQGTLVTVSS
VL: B2 VL with F91T, R93W, S94Y, A96G
B5: I2A-30 IgG1 (antibody, V domains shown)
VH: EVQLVESGGGLVQPGGSLRLSCAASGFTFDSYFIHWVRQAPGKGLEWVAYIYSWGSYTHYADSVKGRFTISADTSKNTAYLQMNSLRAEDTAVYYCARGHRRYFALDYWGQGTLVTVSS
VL: B2 VL with F91V, R93F, S94T, A96G
B6: I2A-33 IgG1 (antibody, V domains shown)
VH: EVQLVESGGGLVQPGGSLRLSCAASGFTFDDYYIHWVRQAPGKGLEWVAWIDSYGGYTSYADSVKGRFTISADTSKNTAYLQMNSLRAEDTAVYYCARSSYYYPGGFDYWGQGTLVTVSS
VL: B2 VL with F91W, Y92D, R93S, S94T, P95L, A96Y
B7: I2A-37 IgG1 (antibody, V domains shown)
VH: EVQLVESGGGLVQPGGSLRLSCAASGFTFSWYGIHWVRQAPGKGLEWVAYIDSYTSSTYYADSVKGRFTISADTSKNTAYLQMNSLRAEDTAVYYCARSHFGHYDYVMDYWGQGTLVTVSS
VL: B2 VL with F91A, R93D, S94Q, P95L, A96Y
B8: I2A-8 IgG1 (antibody, V domains shown)
VH: EVQLVESGGGLVQPGGSLRLSCAASGFTFYGYYIHWVRQAPGKGLEWVAGIRPGGTYTYYADSVKGRFTISADTSKNTAYLQMNSLRAEDTAVYYCARYRYPAFDYWGQGTLVTVSS
VL: B2 VL with F91R, Y92R, R93Q, S94H, P95L, A96W
B9: I2A-36 IgG1 (antibody, V domains shown)
VH: EVQLVESGGGLVQPGGSLRLSCAASGFTFSQYWIHWVRQAPGKGLEWVAAIYSSTKYTIYADSVKGRFTISADTSKNTAYLQMNSLRAEDTAVYYCARESMYFYSYGLDYWGQGTLVTVSS
VL: B2 VL with F91L, Y92P, R93S, S94T, A96L

Key:
[1] = target: ROR1 Kringle domain (human) (UniProt Q01973); assay: BLI, phases labelled 'capture' and 'IgG binding', one ROR1 domain for each panel
[2] = target: ROR1 Frizzled domain (human) (UniProt Q01973); assay: as above
[3] = target: ROR1 Frizzled domain (human) (UniProt Q01973); assay: BLI, IgG1 on biosensor, soluble ROR1 domain
[4] = target: extracellular domain of human ROR1 (human) (UniProt Q01973); assay: BLI, IgG1 on biosensor, soluble ROR ectodomain
[5] = target: ROR1 Ig-like domain (human) (UniProt Q01973); assay: BLI, IgG1 on biosensor, soluble ROR1 domain
[6] = target: extracellular domain of human ROR2 (human) (UniProt Q01974); assay: BLI, IgG1 on biosensor, soluble ROR ectodomain

Row | Binder | binding [4] | binding [5] | also measured
1 | B1 |  |  | binding [1]: no binding (tested: not shown); binding [2]: no binding (tested: not shown)
2 | B2 | binds |  | binding [3]: binds
3 | B3 | binds |  | binding [3]: binds
4 | B4 | binds | binds | binding [6]: binds
5 | B5 | binds | binds | 
6 | B6 | binds | binds | 
7 | B7 | binds | binds | 
8 | B8 | binds |  | 
9 | B9 | binds |  | binding [6]: binds
